Measured values published in publication doi:10.1101/2020.03.02.973057.
These are yes or no findings as the source states them, for the method shown. In cells and extracts the contact can be indirect. Here binding means that the protein was enriched with, or labelled near, the bait; the list need not be complete. For part of these data: Tags and fused reporters may be left off the sequences shown.

T1: XAC1-TAP (eXpression ACtivator 1, Tb927.7.2780, with C-terminal tandem affinity purification tag) (Trypanosoma brucei) (UniProt Q57Y88)
T1 sequence: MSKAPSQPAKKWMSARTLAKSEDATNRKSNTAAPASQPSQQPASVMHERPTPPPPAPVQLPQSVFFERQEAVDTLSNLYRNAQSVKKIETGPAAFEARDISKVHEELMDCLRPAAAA

T2: MKT1L-TAP (Trypanosoma brucei) (UniProt Q38C92)
T2 sequence: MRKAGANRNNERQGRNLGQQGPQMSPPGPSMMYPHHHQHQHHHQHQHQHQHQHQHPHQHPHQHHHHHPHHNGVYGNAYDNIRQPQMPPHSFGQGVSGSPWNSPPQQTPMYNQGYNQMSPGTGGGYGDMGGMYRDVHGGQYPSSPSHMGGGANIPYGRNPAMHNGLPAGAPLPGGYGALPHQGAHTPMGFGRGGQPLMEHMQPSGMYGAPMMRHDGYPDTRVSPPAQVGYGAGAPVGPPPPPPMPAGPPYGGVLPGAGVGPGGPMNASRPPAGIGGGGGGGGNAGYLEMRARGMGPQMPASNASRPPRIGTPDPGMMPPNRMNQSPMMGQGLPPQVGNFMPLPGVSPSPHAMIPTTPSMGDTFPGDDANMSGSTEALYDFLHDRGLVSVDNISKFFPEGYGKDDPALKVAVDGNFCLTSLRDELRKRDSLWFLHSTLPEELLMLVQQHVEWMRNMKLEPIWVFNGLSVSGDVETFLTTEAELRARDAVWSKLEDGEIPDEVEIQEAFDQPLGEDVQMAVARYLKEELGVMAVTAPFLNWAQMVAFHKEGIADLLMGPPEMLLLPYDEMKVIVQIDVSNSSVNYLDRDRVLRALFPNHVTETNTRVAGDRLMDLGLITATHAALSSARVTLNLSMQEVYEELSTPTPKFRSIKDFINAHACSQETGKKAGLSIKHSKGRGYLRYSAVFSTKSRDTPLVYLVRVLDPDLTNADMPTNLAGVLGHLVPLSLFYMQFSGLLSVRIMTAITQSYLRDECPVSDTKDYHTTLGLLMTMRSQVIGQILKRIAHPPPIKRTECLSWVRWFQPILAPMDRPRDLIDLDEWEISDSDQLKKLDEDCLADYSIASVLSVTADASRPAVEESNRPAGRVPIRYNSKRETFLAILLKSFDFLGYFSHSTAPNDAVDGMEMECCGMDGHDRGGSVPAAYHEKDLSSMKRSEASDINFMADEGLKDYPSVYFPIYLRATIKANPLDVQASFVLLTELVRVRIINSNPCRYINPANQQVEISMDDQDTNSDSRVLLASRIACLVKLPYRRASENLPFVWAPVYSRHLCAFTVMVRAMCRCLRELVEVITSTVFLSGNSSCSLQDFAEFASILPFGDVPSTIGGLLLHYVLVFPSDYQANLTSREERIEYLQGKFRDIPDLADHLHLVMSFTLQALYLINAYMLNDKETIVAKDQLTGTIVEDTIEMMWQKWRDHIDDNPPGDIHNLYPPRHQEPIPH

T3: V5-MKT1 (Trypanosoma brucei) (UniProt Q587E3)
T3 sequence: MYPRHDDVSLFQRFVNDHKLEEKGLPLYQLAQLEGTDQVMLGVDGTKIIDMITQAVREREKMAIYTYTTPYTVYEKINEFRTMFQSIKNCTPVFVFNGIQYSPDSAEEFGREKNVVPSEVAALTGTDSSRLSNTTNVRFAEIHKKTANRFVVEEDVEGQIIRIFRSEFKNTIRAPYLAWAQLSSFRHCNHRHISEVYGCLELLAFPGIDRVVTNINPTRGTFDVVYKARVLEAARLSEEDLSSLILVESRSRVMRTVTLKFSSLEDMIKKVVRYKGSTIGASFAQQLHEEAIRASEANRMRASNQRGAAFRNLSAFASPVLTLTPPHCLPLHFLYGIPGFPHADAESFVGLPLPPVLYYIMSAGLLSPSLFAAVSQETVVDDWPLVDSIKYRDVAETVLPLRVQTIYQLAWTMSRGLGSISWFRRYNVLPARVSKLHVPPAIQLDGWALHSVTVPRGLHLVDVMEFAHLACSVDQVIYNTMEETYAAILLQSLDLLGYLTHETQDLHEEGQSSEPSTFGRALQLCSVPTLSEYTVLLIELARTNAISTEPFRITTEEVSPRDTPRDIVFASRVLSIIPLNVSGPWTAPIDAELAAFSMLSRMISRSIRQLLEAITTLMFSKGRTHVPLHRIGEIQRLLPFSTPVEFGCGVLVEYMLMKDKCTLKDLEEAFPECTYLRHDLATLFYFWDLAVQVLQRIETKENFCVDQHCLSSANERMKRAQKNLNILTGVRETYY

T4: V5-MKT1L (Trypanosoma brucei) (UniProt Q38C92)
T4 sequence: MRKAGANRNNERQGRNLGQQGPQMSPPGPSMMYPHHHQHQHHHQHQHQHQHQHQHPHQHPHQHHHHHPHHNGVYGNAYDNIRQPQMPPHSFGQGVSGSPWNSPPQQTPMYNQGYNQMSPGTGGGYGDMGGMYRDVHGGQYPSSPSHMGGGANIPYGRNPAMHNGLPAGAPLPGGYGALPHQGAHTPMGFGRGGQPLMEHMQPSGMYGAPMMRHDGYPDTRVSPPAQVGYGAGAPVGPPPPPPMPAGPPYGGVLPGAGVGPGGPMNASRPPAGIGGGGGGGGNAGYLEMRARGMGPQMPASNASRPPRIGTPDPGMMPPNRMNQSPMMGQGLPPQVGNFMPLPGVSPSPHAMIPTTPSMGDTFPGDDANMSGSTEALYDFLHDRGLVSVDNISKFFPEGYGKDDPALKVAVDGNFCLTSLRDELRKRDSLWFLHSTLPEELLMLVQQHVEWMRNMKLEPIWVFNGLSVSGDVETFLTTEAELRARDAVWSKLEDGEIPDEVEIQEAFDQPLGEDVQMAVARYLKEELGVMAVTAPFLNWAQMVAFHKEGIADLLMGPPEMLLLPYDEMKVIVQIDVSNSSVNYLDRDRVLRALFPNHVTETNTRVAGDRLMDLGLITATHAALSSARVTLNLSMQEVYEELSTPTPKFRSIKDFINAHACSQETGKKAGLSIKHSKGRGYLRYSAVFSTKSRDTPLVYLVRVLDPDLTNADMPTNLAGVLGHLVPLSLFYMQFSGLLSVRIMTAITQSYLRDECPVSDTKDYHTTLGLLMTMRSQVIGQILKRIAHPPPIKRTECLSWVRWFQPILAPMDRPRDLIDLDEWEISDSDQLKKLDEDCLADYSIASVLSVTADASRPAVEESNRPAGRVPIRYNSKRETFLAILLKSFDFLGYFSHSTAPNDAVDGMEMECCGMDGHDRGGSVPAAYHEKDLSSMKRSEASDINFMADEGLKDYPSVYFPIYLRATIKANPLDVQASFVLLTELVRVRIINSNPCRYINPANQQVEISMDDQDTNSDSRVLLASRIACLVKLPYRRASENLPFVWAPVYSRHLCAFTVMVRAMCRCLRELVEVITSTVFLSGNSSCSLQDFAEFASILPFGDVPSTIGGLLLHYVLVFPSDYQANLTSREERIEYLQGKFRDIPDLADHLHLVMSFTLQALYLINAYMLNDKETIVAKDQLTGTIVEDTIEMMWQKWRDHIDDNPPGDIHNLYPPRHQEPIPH

B1: ZC3H20 (protein, UniProt Q57XK8 1-405)
chain: MQLVASPLETRRDIMCFEKGVECMVVVDPATRKLRIPLSCVYPTRAHQRTTIPSLCLLFLDGRCRQGTQCHQVHAALNVVAALRSQVDYLPICCALHGDRDYVNALDNRSWMSRVVVHVPDATYGGGYIPLARFSYTTPISRLLDALFHSTPQAEGQDGAQWESRAFGTPPSCLVLEAGDITLCRLHVQDRCRYAEECNYLHICKEVARCDRGLTLGQRPRSWKKPPSSSPSGGCFVVTASGTSMPPPPAAAAACDAPTPVSGGWTCPGSPTGSLFGANRSVTLGDASVTTQPAVVRCCDPSSCTEAHSVVDCGQAHIPFSLSRQVSDIHMRQVSSTFFPSDNLSLDVDPSTSGDCLAEQGCGMTPNIVVVTRNGKGGRERWHYNPYGTNGTDRGIEKGEGRGRN
B2: LSM12 (protein, UniProt Q38E83 1-190)
chain: MPVCNNDSQLIGLGVSVTLADDTTVNGTVYTYNSSEGLLVLFQGFSGSNPNVKIIRTPFIKEVTALRDNEEKLPPQLEAKARLPSMQAARDRSLFKHASSQLRNAKDKRNQLLQTDDQKTPIAALDTLIKLERIYPDIHWDKDAGVIRFNQDVVVKGKPDWTSPAVVIAEGAGDISRSLMERVQKTLSKK
B3: XAC1 (Tb927.7.2780) (protein, UniProt Q57Y88 1-117)
chain: MSKAPSQPAKKWMSARTLAKSEDATNRKSNTAAPASQPSQQPASVMHERPTPPPPAPVQLPQSVFFERQEAVDTLSNLYRNAQSVKKIETGPAAFEARDISKVHEELMDCLRPAAAA
B4: PBP1 (protein, UniProt Q57UZ7 1-550)
chain: MEGSHSSNMERLEYLYLNLVGQVVQVRLVDDMCVEGLFVACTDVDAETDAGIMICCTRNLASAKRSPLSPSCVNFTDDLFIPYQSIVMIEVQNAKIRTETPGRPDTGRADFSATKFDWADDGVSELLESEPHQTGTWNQFEANEKSFGVKTTYKEEFYTTRLDHSKITEEQRAQADRLAREIESSSTRGIAHRMEREECLHDDEGLDEGQLYSDVHRPQEKKPPYVPPSTGGRKLVNEPPPVPAAAAPATAPTTAPAAAPAPAAAPPAAAPAAAAPPPPPAATSMADDGSMRHKRMNEDPHHMQYDANQTAAGFNPAAAPYTPMKPGAAVPVVDFLASLADAISNNDMCYDCEPHWPGMCNLFYDQDDSSYSQQNYEAAAMPPSHSMNMHMYVNSQPNIPNAHRGYQGPLGRVPHNQSMPMHHMQGQGFHHEMHHHQAFHGMGNYSSQHHNPPIQEYAPHKGQQGVVSRPGMRQGKGGGASRVEPQQPVSANTASSPPPVPTVDSAPNEVKPPAKLQRGRGMAAFTKGDMDGDSGATTNATGGPKKRVGK

Experiments:
Experiment in all cases: affinity purification with mass spectrometry
[1] = target: T1, XAC1-TAP (eXpression ACtivator 1, Tb927.7.2780, with C-terminal tandem affinity purification tag) (Trypanosoma brucei)
[2] = target: T2, MKT1L-TAP (Trypanosoma brucei)
[3] = target: T3, V5-MKT1 (Trypanosoma brucei)
[4] = target: T4, V5-MKT1L (Trypanosoma brucei)

Binder	binding [1]	binding [2]	binding [3]	binding [4]
B1	binds	–	–	–
B2	–	binds	binds	binds
B3	–	binds	–	binds
B4	–	binds	binds	binds
